In PMC7772773 one finds binding data, which are given here for five substances.

Chains of the proteins cited; added tags and fusions are not shown. Lines headed by an entry give the natural chain unless they say otherwise; changes in a name come on top. A line that says so, or that is headed by a name, gives the form on record, which may keep a tag or linker.
UniProt Q9R1C8: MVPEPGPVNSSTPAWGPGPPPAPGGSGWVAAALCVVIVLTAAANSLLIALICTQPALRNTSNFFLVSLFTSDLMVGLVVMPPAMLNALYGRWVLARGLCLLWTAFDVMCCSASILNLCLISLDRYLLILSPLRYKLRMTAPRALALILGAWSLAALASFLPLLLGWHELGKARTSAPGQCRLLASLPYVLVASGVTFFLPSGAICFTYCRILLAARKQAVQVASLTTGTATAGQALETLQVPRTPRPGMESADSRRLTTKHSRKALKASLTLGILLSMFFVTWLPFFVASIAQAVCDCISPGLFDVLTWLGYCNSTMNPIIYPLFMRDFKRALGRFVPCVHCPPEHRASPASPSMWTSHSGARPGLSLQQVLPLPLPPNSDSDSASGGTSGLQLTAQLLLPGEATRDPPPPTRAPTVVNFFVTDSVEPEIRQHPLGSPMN
myc-HTR6(IC3-mut4) (Q9R1C8, form named): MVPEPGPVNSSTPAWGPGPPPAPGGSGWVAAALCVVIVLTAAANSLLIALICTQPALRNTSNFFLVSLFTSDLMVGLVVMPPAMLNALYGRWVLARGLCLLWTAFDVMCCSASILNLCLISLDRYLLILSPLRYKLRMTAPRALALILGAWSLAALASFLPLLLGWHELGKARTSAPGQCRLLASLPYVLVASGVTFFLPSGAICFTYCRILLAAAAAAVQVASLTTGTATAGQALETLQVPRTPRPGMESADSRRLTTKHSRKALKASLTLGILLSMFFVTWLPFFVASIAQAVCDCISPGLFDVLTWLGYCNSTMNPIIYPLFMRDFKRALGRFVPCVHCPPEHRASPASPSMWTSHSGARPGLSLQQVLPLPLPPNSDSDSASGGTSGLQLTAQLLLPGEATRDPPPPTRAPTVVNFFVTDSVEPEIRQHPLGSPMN
myc-HTR6(IC3-mut4+CT-mut3) (Q9R1C8, form named): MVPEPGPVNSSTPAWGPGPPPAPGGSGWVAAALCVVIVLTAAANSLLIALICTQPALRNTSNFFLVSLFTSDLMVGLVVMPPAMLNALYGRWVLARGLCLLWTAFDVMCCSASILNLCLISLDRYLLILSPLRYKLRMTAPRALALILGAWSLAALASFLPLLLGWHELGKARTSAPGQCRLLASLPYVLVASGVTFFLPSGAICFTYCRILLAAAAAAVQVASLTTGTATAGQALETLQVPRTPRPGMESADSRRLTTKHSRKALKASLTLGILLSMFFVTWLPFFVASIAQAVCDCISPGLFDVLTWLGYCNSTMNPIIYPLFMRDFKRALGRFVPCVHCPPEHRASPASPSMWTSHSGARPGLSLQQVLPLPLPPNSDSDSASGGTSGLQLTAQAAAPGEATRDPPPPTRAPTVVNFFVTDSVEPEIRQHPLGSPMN
myc-HTR6(CT-mut3) (Q9R1C8, form named): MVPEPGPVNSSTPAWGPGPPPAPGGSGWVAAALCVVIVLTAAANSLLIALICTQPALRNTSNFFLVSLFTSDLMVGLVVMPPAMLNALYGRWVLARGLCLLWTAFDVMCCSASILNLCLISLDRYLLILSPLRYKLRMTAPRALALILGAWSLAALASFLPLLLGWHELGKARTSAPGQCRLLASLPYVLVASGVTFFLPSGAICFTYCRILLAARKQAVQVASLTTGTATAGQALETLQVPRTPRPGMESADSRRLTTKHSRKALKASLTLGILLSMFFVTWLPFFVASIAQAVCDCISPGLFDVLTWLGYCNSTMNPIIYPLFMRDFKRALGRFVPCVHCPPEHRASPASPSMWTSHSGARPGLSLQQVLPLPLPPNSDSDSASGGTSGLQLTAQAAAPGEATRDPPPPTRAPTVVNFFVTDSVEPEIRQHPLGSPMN

Results are given in words; binding and its absence hold for the method and conditions named. Binding seen in cells or lysates may run through a third protein. Some binding calls cover weakened binding; strength is not graded here. Tags and fused reporters may be left off the sequences shown.

One experiment deals with T1, EGFP-RABL2B (human) (UniProt Q9UNT1).
T1 sequence: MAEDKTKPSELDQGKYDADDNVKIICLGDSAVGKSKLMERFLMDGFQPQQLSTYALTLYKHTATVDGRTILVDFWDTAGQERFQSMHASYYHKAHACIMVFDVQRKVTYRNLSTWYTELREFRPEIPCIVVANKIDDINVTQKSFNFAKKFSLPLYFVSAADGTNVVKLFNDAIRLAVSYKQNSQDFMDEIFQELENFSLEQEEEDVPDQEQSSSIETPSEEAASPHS
In words: co-IP; HEK293T lysates (50 mM Tris–HCl pH 7.5, 150 mM NaCl, 0.5 mM EDTA, 1% Igepal CA-630); EGFP-RABL2B precipitated with GFP-Trap_MA beads, 2 h at 4°C; co-precipitated myc- or Flag-tagged HTR6 constructs detected by Western blot; in Fig 12K with coexpressed TULP3-myc, TULP3-KR-myc (K268A+R270A) or myc-B9D1. Background: Immunoblotting shows a protein as a band on a membrane.

The target in the next experiment is T2, Flag-RABL2B (human) (UniProt Q9UNT1).
T2 sequence: T1 sequence
Nature of the experiment: co-IP; HEK293T lysates (50 mM Hepes pH 7.5, 150 mM NaCl, 5 mM MgCl2, 0.5% NP-40, 1 mM DTT); Flag-RABL2B precipitated with anti-Flag agarose beads, 2 h at 4°C, from 2 mg of total protein; blots with anti-HTR6 and anti-Flag antibodies.

For the substance “HTR6-Flag (from UniProt Q9R1C8 1-440) (receptor)”, in the experiment with EGFP-RABL2B (human), the binding result is recorded as “binds”.
“myc-HTR6 (from UniProt Q9R1C8 1-440) (receptor)”: the binding result with EGFP-RABL2B (human) and with Flag-RABL2B (human) was “binds” throughout.
As to “myc-HTR6(IC3-mut4) (from UniProt Q9R1C8 1-440) (receptor)”, the binding result in the experiment with EGFP-RABL2B (human) is “binds”.
As to “myc-HTR6(IC3-mut4+CT-mut3) (from UniProt Q9R1C8 1-440) (receptor)”, the binding entry with EGFP-RABL2B (human) is recorded as “binds”.
For the substance “myc-HTR6(CT-mut3) (from UniProt Q9R1C8 1-440) (receptor)”, the binding result in the experiment with EGFP-RABL2B (human) and with Flag-RABL2B (human) was “binds” each time.
